From publication PMC10201443, “Site-directed biochemical analyses reveal that the switchable C-terminus of Rpc31 contributes to RNA polymerase III transcription initiation” (Nucleic Acids Research, 2022)
No constants are given. Whether binding was seen depends on the method and setting. For some assays here: Binding seen in cells or lysates may run through a third protein. Some results given as binding are weak or reduced against the parent protein; the word gives no strength. Where a sequence is shown, tags or fusion partners need not be part of it.

T1: Flag-epitope-tagged Rpc128 (S. cerevisiae) (UniProt P22276)
T1 sequence: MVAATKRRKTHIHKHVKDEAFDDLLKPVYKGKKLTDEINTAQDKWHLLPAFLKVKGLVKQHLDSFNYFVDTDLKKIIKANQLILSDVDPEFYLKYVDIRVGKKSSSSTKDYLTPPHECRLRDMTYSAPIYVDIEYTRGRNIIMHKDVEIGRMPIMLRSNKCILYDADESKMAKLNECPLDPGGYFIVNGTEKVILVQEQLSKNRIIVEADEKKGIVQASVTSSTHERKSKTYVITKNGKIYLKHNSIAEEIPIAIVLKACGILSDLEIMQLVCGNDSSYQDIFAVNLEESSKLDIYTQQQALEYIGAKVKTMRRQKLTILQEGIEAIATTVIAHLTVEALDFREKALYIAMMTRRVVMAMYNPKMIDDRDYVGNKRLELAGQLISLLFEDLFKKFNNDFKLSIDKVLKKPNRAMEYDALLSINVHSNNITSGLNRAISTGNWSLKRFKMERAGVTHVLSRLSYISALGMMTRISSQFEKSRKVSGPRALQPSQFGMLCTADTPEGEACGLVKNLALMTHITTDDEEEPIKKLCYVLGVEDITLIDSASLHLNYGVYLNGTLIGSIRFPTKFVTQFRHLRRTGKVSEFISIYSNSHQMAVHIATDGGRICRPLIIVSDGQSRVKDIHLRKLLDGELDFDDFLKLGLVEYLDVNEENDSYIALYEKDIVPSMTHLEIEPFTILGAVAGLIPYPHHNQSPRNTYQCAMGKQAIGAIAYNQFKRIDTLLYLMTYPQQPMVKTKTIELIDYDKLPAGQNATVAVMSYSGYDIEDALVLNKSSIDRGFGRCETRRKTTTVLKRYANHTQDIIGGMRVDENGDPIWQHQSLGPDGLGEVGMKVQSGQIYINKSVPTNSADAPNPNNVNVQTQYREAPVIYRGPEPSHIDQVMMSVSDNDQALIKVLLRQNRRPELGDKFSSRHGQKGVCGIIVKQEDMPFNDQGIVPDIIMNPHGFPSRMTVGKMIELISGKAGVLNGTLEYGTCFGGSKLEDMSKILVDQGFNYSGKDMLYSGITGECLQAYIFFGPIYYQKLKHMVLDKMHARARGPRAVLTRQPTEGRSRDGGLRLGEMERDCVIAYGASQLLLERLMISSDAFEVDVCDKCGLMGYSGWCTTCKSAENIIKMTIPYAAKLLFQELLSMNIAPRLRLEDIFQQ

T2: Full-length Rpc34 protein with an N-terminal V5 epitope tag, Alexa 647-labeled (S. cerevisiae) (UniProt P32910)
T2 sequence (chain, Alexa Fluor 647 NHS Ester label (labeling efficiency ~0.8)): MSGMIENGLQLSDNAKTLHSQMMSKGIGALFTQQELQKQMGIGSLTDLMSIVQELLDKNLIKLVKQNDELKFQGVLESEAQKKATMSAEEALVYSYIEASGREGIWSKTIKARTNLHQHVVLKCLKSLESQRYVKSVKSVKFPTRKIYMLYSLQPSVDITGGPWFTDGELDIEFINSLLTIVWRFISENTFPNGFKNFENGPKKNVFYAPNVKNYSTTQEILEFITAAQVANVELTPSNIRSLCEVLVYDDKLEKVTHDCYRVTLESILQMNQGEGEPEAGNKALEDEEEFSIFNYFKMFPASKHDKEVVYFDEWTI

B1: Rpc160 (protein, UniProt P04051 1-1460)
chain: MKEVVVSETPKRIKGLEFSALSAADIVAQSEVEVSTRDLFDLEKDRAPKANGALDPKMGVSSSSLECATCHGNLASCHGHFGHLKLALPVFHIGYFKATIQILQGICKNCSAILLSETDKRQFLHELRRPGVDNLRRMGILKKILDQCKKQRRCLHCGALNGVVKKAAAGAGSAALKIIHDTFRWVGKKSAPEKDIWVGEWKEVLAHNPELERYVKRCMDDLNPLKTLNLFKQIKSADCELLGIDATVPSGRPETYIWRYLPAPPVCIRPSVMMQDSPASNEDDLTVKLTEIVWTSSLIKAGLDKGISINNMMEHWDYLQLTVAMYINSDSVNPAMLPGSSNGGGKVKPIRGFCQRLKGKQGRFRGNLSGKRVDFSGRTVISPDPNLSIDEVAVPDRVAKVLTYPEKVTRYNRHKLQELIVNGPNVHPGANYLLKRNEDARRNLRYGDRMKLAKNLQIGDVVERHLEDGDVVLFNRQPSLHRLSILSHYAKIRPWRTFRLNECVCTPYNADFDGDEMNLHVPQTEEARAEAINLMGVKNNLLTPKSGEPIIAATQDFITGSYLISHKDSFYDRATLTQLLSMMSDGIEHFDIPPPAIMKPYYLWTGKQVFSLLIKPNHNSPVVINLDAKNKVFVPPKSKSLPNEMSQNDGFVIIRGSQILSGVMDKSVLGDGKKHSVFYTILRDYGPQEAANAMNRMAKLCARFLGNRGFSIGINDVTPADDLKQKKEELVEIAYHKCDELITLFNKGELETQPGCNEEQTLEAKIGGLLSKVREEVGDVCINELDNWNAPLIMATCGSKGSTLNVSQMVAVVGQQIISGNRVPDGFQDRSLPHFPKNSKTPQSKGFVRNSFFSGLSPPEFLFHAISGREGLVDTAVKTAETGYMSRRLMKSLEDLSCQYDNTVRTSANGIVQFTYGGDGLDPLEMEGNAQPVNFNRSWDHAYNITFNNQDKGLLPYAIMETANEILGPLEERLVRYDNSGCLVKREDLNKAEYVDQYDAERDFYHSLREYINGKATALANLRKSRGMLGLLEPPAKELQGIDPDETVPDNVKTSVSQLYRISEKSVRKFLEIALFKYRKARLEPGTAIGAIGAQSIGEPGTQMTLKTFHFAGVASMNVTLGVPRIKEIINASKVISTPIINAVLVNDNDERAARVVKGRVEKTLLSDVAFYVQDVYKDNLSFIQVRIDLGTIDKLQLELTIEDIAVAITRASKLKIQASDVNIIGKDRIAINVFPEGYKAKSISTSAKEPSENDVFYRMQQLRRALPDVVVKGLPDISRAVINIRDDGKRELLVEGYGLRDVMCTDGVIGSRTTTNHVLEVFSVLGIEAARYSIIREINYTMSNHGMSVDPRHIQLLGDVMTYKGEVLGITRFGLSKMRDSVLQLASFEKTTDHLFDAAFYMKKDAVEGVSECIILGQTMSIGTGSFKVVKGTNISEKDLVPKRCLFESLSNEAALKAN
B2: Rpc82 (protein, UniProt P32349 1-654)
chain: MDELLGEALSAENQTGESTVESEKLVTPEDVMTISSLEQRTLNPDLFLYKELVKAHLGERAASVIGMLVALGRLSVRELVEKIDGMDVDSVKTTLVSLTQLRCVKYLQETAISGKKTTYYYYNEEGIHILLYSGLIIDEIITQMRVNDEEEHKQLVAEIVQNVISLGSLTVEDYLSSVTSDSMKYTISSLFVQLCEMGYLIQISKLHYTPIEDLWQFLYEKHYKNIPRNSPLSDLKKRSQAKMNAKTDFAKIINKPNELSQILTVDPKTSLRIVKPTVSLTINLDRFMKGRRSKQLINLAKTRVGSVTAQVYKIALRLTEQKSPKIRDPLTQTGLLQDLEEAKSFQDEAELVEEKTPGLTFNAIDLARHLPAELDLRGSLLSRKPSDNKKRSGSNAAASLPSKKLKTEDGFVIPALPAAVSKSLQESGDTQEEDEEEEDLDADTEDPHSASLINSHLKILASSNFPFLNETKPGVYYVPYSKLMPVLKSSVYEYVIASTLGPSAMRLSRCIRDNKLVSEKIINSTALMKEKDIRSTLASLIRYNSVEIQEVPRTADRSASRAVFLFRCKETHSYNFMRQNLEWNMANLLFKKEKLKQENSTLLKKANRDDVKGRENELLLPSELNQLKMVNERELNVFARLSRLLSLWEVFQMA
B3: Rpc31(aa 121–251)_Flag_ΔS151-G164 (domain or fragment, UniProt P17890)
chain: SIDDHPYNLNLFPNELYNVMGINKKKLLAILQDENIGLSMLAKLKELAEDVDDASTGDGAAKGSKTGEGEDDDLADDDFEEDEDEEDDDDYNAEKYFNNGDDDDYGDEEDPNEEAAF
B4: Rpc34 (protein, UniProt P32910 1-317)
chain: T2 sequence (chain, Alexa Fluor 647 NHS Ester label (labeling efficiency ~0.8))
B5: Rpc31 with a single V5-epitope tag at its C-terminus (wild type) (protein, UniProt P17890 1-251)
chain: MSSYRGGSRGGGSNYMSNLPFGLGYGDVGKNHITEFPSIPLPINGPITNKERSLAVKYINFGKTVKDGPFYTGSMSLIIDQQENSKSGKRKPNIILDEDDTNDGIERYSDKYLKKRKIGISIDDHPYNLNLFPNELYNVMGINKKKLLAISKFNNADDVFTGTGLQDENIGLSMLAKLKELAEDVDDASTGDGAAKGSKTGEGEDDDLADDDFEEDEDEEDDDDYNAEKYFNNGDDDDYGDEEDPNEEAAF

What was measured:
[1] = target: T1, Flag-epitope-tagged Rpc128 (S. cerevisiae); assay: co-IP; Flag-tagged Rpc128 from yeast whole cell extract (1.5 mg) held on anti-FLAG antibody agarose beads (M2); 4°C, 2 h; WCE buffer (20 mM HEPES pH 7.9, 100 mM KCl, 5 mM MgCl2, 1 mM EDTA, 20% glycerol); Western blot
[2] = target: T2, Full-length Rpc34 protein with an N-terminal V5 epitope tag, Alexa 647-labeled (S. cerevisiae); assay: MST; Alexa647-labeled Rpc34 constant at 5 nM, unlabeled Rpc31 peptides titrated (WT 1.16 μM to 0.000035 μM); 5 mM sodium phosphate pH 8.0, 0.05% Tween 20; 25°C; MST-on time 5 s; three independent measurements; both purified

Row | Binder | binding [1] | binding [2]
1 | B1 | binds | 
2 | B2 | binds | 
3 | B3 |  | binds weakly
4 | B4 | binds | 
5 | B5 | binds | 
